Source: ChEMBL document CHEMBL4296182, “CO-ADD screening of NIH NCI Diversity Set V”
The list shows a part of the results. Measured potencies and affinities stand elsewhere.

Each compound was assayed on Pseudomonas aeruginosa. Conditions: Concentration 20 uM; ASSAY_TEST Inhibition of Bacterial Growth; detection method Absorption (OD600); MEDIA CAMHB; plate type 384well; NBS; CORNING #3640; time 18 hr.
For `CN(C)c1ccc(/C=C/C(=O)c2cc(Cl)ccc2O)cc1`, the Inhibition was 21.55%. For `c1ccn(CCc2ccncc2)c1`, the Inhibition was 14.65%. `O=c1nc(Oc2ccccc2)nc2ncccn12` gave an Inhibition of 6.33%. In the case of `CCC(C)n1c(C)cc(=O)n1C(C)CC` (stereo unspecified), the Inhibition was -3.12%. `CC1=NC(C)(C)CC2CCC(O)C12` (stereo unspecified) showed an Inhibition of 14.19%. In the case of `Nc1nc(Cl)cc(Nc2ccccc2Cl)n1`, the Inhibition was -14.31%. In the case of `CCOC(=O)c1nn(-c2ccccc2)cc1O`, the Inhibition was -6.89%. `Cc1c(NC(=O)Nc2c(Cl)cccc2Cl)c(=O)n(-c2ccccc2)n1C` showed an Inhibition of 19.34%. `CN(C)Cc1cc(C(F)(F)F)ccc1C(O)(c1ccccc1)c1ccccc1` showed an Inhibition of 25.21%. Compound `CCNc1nc(NC(C)C)nc(-c2ccncc2)n1` has an Inhibition of 20.87%. `Cc1nc(S)nc(O)c1CCC1OCCO1` showed an Inhibition of 16.2%. For `COC1=CC(C)C2CC3OC(O)CC4C(C)=C(OC)C(=O)C(C2(C)C1=O)C34C` (stereo unspecified), the Inhibition was 8.16%. In the case of `O=C(O)c1ccccc1-n1c2ccccc2c2ccccc21`, the Inhibition was 8.61%. `ClCC(CNCc1ccccc1)c1ccccc1` (stereo unspecified) showed an Inhibition of 2.14%. `CSc1nc2cc(S(=O)(=O)N3CCCCC3)ccc2s1` was tested, and the Inhibition was -5.16%. `NC(CSC1(c2cccc3ccccc23)c2ccccc2-c2ccccc21)C(=O)O` (stereo unspecified) was tested, and the Inhibition was 11.91%. Work on `Br.C=CC1CN2CCC1CC2C(O)c1ccnc2ccc(OC)cc12` (stereo unspecified) yielded an Inhibition of 19.88%. Compound `Cc1ccc([N+](=O)[O-])cc1NC(=O)Nc1cccc(F)c1` has an Inhibition of 12.57%. `Nc1nc(S)c2ncn(C3CCCC3)c2n1` gave an Inhibition of 28.61%. With `Nn1c(Cc2ccccc2)nnc1Cc1ccccc1` the Inhibition was 7.54%. `N=C1OC(c2ccccc2)C(O)=C1O` (stereo unspecified) gave an Inhibition of 6.44%. For `CCOC(=O)c1cc(OCC)c2c(ccc3ccccc32)n1`, the Inhibition was -5.38%. `O=C(O)CSc1nc2ccccc2s1` gave an Inhibition of -1.07%. `CN(C)c1nc(Cl)nc2c1nc(Cl)n2C1CCCCO1` (stereo unspecified) was tested, and the Inhibition was 0.82%. With `CC(C)c1ccc(-c2nc3ccccc3s2)cc1` the Inhibition was 4.9%. Work on `O=C(Nc1ccc(Cl)c([N+](=O)[O-])c1)Nc1nc2ccccc2s1` yielded an Inhibition of 15.38%. Work on `CN(C(=O)c1ccncc1)c1ccccc1` yielded an Inhibition of 4.79%. For `Cc1cc(NC(=O)OC(C)C)ccc1-c1ccc(NC(=O)OC(C)C)cc1C`, the Inhibition was -11.78%. For `C(=C\CSc1ccccn1)/CSc1ccccn1`, the Inhibition was 25.2%. `CC(=O)[C@@]1(O)[C@H](C)C[C@H]2[C@@H]3C=C(C)C4=Cc5c(cnn5-c5ccccc5)C[C@]4(C)[C@H]3[C@@H](O)C[C@@]21C` was tested, and the Inhibition was 12.99%. `NS(=O)(=O)c1ccc(/N=N/c2ccc(O)[nH]c2=O)cc1` was tested, and the Inhibition was 20.92%. For `CCSc1nc(C)cc(S)n1`, the Inhibition was 21.23%. In the case of `CN1C(=O)c2ccccc2Cc2c(NCc3ccccc3)ncnc21`, the Inhibition was 22.17%. With `O=C(Nc1nnc(C(F)(F)F)s1)c1c(F)cccc1F` the Inhibition was 18.28%. Compound `Cc1c(O)ccc2c(O)c(NC(=O)c3ccc4c(c3)CCC(C)(C)O4)c(=O)oc12` [CYCLONOVOBIOCIC ACID] has an Inhibition of 11.99%. `COC(=O)c1cc(C)c(C)cc1NC1OC(CO)C(O)C1O` (stereo unspecified) gave an Inhibition of -6.55%. With `COC(=O)C1=C(C)NC(C)=C(C(=O)OC)C(N2C(=O)CCC2=O)C1` (stereo unspecified) the Inhibition was 19.58%. With `CCCOc1ccc(-c2nc(-c3ccc(N)cc3)cs2)cc1` the Inhibition was 15.99%. `Cc1nc(N)nc(Cl)c1CCC1OCCO1` gave an Inhibition of 10.13%. `CCOC(=O)c1[nH]c(CO)c(C(=O)OCC)c1C` gave an Inhibition of 4.18%. For `CC(C)(C)C(=O)Nc1ccc(NC(=O)C(C)(C)C)cc1`, the Inhibition was 3.9%. `C/C(=N\O)[C@H]1CC[C@H]2[C@@H]3CC[C@@H]4C/C(=N/O)CC[C@]4(C)[C@H]3[C@@](C)(O)C[C@]12C` gave an Inhibition of 28.52%. In the case of `COc1ccc2c(C)cc(C)nc2n1`, the Inhibition was 0.15%. `O=C(/C=C\c1ccc(O)c(O)c1)OC1C(O)CC(OC(=O)/C=C/c2ccc(O)c(O)c2)(C(=O)O)CC1O` (stereo unspecified) was tested, and the Inhibition was 14.22%. With `Nc1ncnc2c1ncn2C=C=CCO` the Inhibition was -5.34%. Work on `C=CCN=C(NC#N)SC` yielded an Inhibition of -7.26%. `Cl.O=C(O)c1ccc(NCc2nc3ccccc3[nH]2)cc1` showed an Inhibition of -13.23%. Compound `CCCCCn1cnc2c(S)nc(N)nc21` has an Inhibition of 16.96%. In the case of `Cc1ccc(S(=O)(=O)NNC(=O)C23CCC(CC2)C3)cc1`, the Inhibition was 31.05%. With `Cc1nc(Nc2ccc(F)cc2)nc(Nc2ccc(F)cc2)c1[N+](=O)[O-]` the Inhibition was 25.2%. In the case of `Cc1cccc(C)c1NC(=O)NCc1ccco1`, the Inhibition was 3.33%. Work on `C1CCC(NC2=NCCO2)CC1` yielded an Inhibition of 11.37%. `CN(C)c1ccc(/C=C2/C=C(c3ccc4c(c3)CCCC4)OC2=O)cc1` gave an Inhibition of 15.17%. `CC(C)N(Cc1ccccc1)S(=O)(=O)c1nc(C(C)(C)C)n[nH]1` was tested, and the Inhibition was 18.9%. `CCN1CCCCC(=N\O)/C(=N/O)CCCC1` showed an Inhibition of 19.01%. For `Nc1ccccc1-n1nc2ccc3ccccc3c2n1`, the Inhibition was 18.19%. Compound `Cn1ncc2c(Nc3ccc(Br)cc3)nc(Nc3ccc(Br)cc3)nc21` has an Inhibition of 22.59%. In the case of `CN1CCN(C(=O)Nc2ccc([N+](=O)[O-])cc2)CC1`, the Inhibition was 6.49%. `O=C(c1ccccc1)c1ccc(Sc2ccc([N+](=O)[O-])cc2)cc1` was tested, and the Inhibition was 17.7%. `Clc1ccc(-c2[nH]nc3c2Cc2ccccc2-3)cc1Cl` showed an Inhibition of -5.03%. In the case of `Cn1ncc2c(Sc3ccc(Cl)cc3)ncnc21`, the Inhibition was -1.88%. Work on `CCC(=Cc1ccc(CC)cn1)CC` yielded an Inhibition of 1.5%. In the case of `Nc1ccccc1-c1nc2cnccc2[nH]1`, the Inhibition was 12.68%. Work on `Cc1ccc(NC(=O)N2CCCCC2)cc1[N+](=O)[O-]` yielded an Inhibition of 6.69%. `CCOC(=O)Nc1c(Cl)n(C)c(=O)n(C)c1=O` was tested, and the Inhibition was -14.01%. For `CC1CCCC(CC(=O)O)(CC(=O)O)C1` (stereo unspecified), the Inhibition was -15.71%. Compound `CS/C(=C\c1ccc(C(=O)c2ccc(C)cc2)n1C)[S+](C)[O-]` (stereo unspecified) has an Inhibition of 23.19%. `O=[N+]([O-])c1ccc2c3ccccc3[s+]([O-])c2c1` (stereo unspecified) was tested, and the Inhibition was 8.87%. With `c1ccc2c(c1)Nc1cc3ccccc3cc1S2` the Inhibition was 12.44%. `CC(C)Oc1ccc(C(=O)O)cc1` was tested, and the Inhibition was 9.81%. `CC(=O)Oc1ccc(C(c2ccc(OC(C)=O)cc2)c2ccccn2)cc1` [BISACODYL] showed an Inhibition of 22.56%. `COc1cc(O)c(C(=O)/C=C/c2ccccc2)c(OC)c1` [FLAVOKAWAIN B] gave an Inhibition of 10.96%. For `CN1C=C/C(=C/[N+](=O)[O-])N(C)C1=O`, the Inhibition was 4.48%. In the case of `O=C(O)c1cc2cc(OCc3ccccc3)ccc2[nH]1`, the Inhibition was 2.28%. `NC(=O)Nc1ccc(Nc2ccccc2)cc1` was tested, and the Inhibition was 4.83%. With `Nc1ccc(Nc2ccccc2)c(S(=O)(=O)O)c1` the Inhibition was -6.32%. For `Cc1cc2nc(-c3ccccn3)c(-c3ccccn3)nc2cc1C`, the Inhibition was 6.95%. In the case of `CC(=O)NCC(=O)O.CN(C)CCC1c2ccc(Cl)cc2CCc2cccnc21` (stereo unspecified) [CLOSIRAMINE ACETURATE], the Inhibition was 27.92%. Compound `CCOC(=O)c1csc(-c2ccc(COC(=O)c3ccccc3)o2)n1` has an Inhibition of 17.7%. `Cc1ccncc1C(N)=O` gave an Inhibition of 5.1%. For `NC1=NC(Nc2ccccc2)=NC(c2ccccc2)N1` (stereo unspecified), the Inhibition was 7.79%. Work on `COc1ccc(-c2cc(-c3ccccc3)c(-c3ccccc3)nn2)cc1` yielded an Inhibition of 11.85%. In the case of `Nc1cc2c3c(cccc3c1)C(=O)N(CCN1CCCC1)C2=O`, the Inhibition was 27.74%. Work on `Cc1ccc(S(=O)(=O)N2CC=C(N)N2)cc1` yielded an Inhibition of 15.64%. For `C#CCNc1ccc(C(=O)OCC)cc1`, the Inhibition was -3.64%. `CCOc1ccc(NC(=O)Nc2cc(C(C)C)c(O)cc2C)cc1` showed an Inhibition of 15.57%. `c1ccc(NCCSc2nc3ccccc3s2)cc1` showed an Inhibition of 12.09%. For `CCN(CC)c1ccc(/C=C/c2cc(-c3ccccc3)c3ccccc3n2)cc1`, the Inhibition was 20.27%. With `c1ccc2nc(NN=C3CCCCC3)ccc2c1` the Inhibition was 11.83%. `CN1CCC(=C2c3ccccc3C(O)c3ccccc32)CC1` (stereo unspecified) showed an Inhibition of 23.41%. Compound `Cc1cc(=O)c2c(o1)C(=O)c1occc1C2=O` has an Inhibition of -29.59%. `Cc1ccc2c(c1)sc1nncn12` showed an Inhibition of 13.54%. In the case of `Cc1ccc2c(c1)c1ccc3c(c1n2C)C(=O)C=CC3=O`, the Inhibition was 16.2%. With `Cc1nc2ccc(Cl)cn2c1[N+](=O)[O-]` the Inhibition was -8.97%. With `Cn1c(=O)c2c(ncn2CCOC(=O)C(C)(C)Oc2ccc(Cl)cc2)n(C)c1=O` [THEOFIBRATE] the Inhibition was 20.89%. `CNC(=O)OCN1C(=O)C2CC=CCC2C1=O` (stereo unspecified) showed an Inhibition of 11.73%. With `Cc1ccc(NC(=O)N2CCN(C)CC2)cc1NC(=O)N1CCN(C)CC1` the Inhibition was -13.82%. In the case of `COC1OC2COC(c3ccccc3)OC2C(=O)C1NC(=O)c1ccccc1` (stereo unspecified), the Inhibition was 28.99%. `Cn1c(=O)c2c(nc(OCCc3ccccc3)n2C)n(C)c1=O` showed an Inhibition of 19.39%. In the case of `COc1cc(/C=C2\CCOC2=O)cc(OC)c1OC`, the Inhibition was 15.95%. For `C1CCc2nc3c(nc2C1)CCCC3`, the Inhibition was 19.99%. `O=[N+]([O-])c1ccc(Sc2ncccn2)c([N+](=O)[O-])c1` gave an Inhibition of 10.12%. With `Oc1ccnc(Nc2ccc(Cl)cc2)n1` the Inhibition was 19.48%. With `Brc1csc2ncccc12` the Inhibition was -2.37%. `c1ccc(-c2nc3ccccc3s2)nc1` showed an Inhibition of 22.83%. With `CC1(C)OC2C(CO)OC(n3cnc4c(S)ncnc43)C2O1` (stereo unspecified) the Inhibition was 21.23%. For `Cc1c(O)cnc2nn(-c3ccccc3)c(=N)n12`, the Inhibition was 8.14%. With `CN(C)Cc1c[nH]c2nccnc12` the Inhibition was 13.45%. For `CC(C)(C)C1=NN=C2c3ccccc3C(=O)C21` (stereo unspecified), the Inhibition was -21.54%. Work on `C=CCNC(=S)N1CCN(c2ccccc2Cl)CC1` yielded an Inhibition of -17.36%. `CCCCNc1nc(N)ncc1[N+](=O)[O-]` gave an Inhibition of 15.58%.
